Where two headings read alike, the source gives them in different places. These are yes or no findings as the source states them, for the method shown. Binding seen in cells or lysates may run through a third protein. Some results given as binding are weak or reduced against the parent protein; the word gives no strength. Blank lines part the entries; values can stand above or below the molecule they belong to.
How the values were obtained:
[1] = biological target: T1, retinoic acid receptor alpha (RARα) (mouse (endogenous in mouse SMCs)) (UniProt P11416); test: co-IP
T1 sequence: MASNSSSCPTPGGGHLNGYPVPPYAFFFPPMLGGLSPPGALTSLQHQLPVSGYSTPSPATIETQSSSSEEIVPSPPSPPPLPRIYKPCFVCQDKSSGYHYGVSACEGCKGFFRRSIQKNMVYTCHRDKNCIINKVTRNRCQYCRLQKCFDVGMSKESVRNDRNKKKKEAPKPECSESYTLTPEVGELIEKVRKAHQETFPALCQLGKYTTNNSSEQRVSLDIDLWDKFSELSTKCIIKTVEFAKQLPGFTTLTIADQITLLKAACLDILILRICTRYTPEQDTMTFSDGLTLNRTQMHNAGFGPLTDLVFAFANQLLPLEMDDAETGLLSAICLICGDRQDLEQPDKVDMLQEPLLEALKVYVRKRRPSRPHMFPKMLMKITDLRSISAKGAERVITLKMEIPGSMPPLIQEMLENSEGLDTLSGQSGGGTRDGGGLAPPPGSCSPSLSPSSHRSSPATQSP

The chains behind the UniProt entries cited, without tags or fusion partners.
UniProt Q6NZM9: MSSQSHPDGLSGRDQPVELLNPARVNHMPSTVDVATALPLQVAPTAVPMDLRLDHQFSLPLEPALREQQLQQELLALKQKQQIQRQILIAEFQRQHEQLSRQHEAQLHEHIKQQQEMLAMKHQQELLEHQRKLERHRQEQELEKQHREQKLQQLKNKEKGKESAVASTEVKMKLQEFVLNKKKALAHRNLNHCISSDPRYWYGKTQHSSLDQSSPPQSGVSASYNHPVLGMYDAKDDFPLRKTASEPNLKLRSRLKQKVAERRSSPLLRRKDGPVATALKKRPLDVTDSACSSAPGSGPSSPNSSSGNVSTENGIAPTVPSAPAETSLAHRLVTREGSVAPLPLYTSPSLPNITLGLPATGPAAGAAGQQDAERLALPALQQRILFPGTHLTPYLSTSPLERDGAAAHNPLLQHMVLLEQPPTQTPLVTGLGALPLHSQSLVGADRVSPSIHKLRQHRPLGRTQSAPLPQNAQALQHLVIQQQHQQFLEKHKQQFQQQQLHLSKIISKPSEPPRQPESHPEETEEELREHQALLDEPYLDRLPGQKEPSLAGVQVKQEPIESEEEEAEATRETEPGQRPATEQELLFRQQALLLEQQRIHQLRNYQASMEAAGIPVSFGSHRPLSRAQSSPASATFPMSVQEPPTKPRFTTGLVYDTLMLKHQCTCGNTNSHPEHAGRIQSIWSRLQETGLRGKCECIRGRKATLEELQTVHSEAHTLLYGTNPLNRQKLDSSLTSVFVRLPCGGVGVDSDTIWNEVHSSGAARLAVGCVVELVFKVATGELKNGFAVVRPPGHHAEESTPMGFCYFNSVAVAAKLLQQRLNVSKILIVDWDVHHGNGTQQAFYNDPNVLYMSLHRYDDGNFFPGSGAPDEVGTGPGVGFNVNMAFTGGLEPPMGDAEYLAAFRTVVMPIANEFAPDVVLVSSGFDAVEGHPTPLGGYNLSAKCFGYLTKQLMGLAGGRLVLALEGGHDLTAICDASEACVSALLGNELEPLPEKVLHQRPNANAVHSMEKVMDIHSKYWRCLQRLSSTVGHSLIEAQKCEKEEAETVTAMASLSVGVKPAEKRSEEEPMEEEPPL
UniProt Q61188: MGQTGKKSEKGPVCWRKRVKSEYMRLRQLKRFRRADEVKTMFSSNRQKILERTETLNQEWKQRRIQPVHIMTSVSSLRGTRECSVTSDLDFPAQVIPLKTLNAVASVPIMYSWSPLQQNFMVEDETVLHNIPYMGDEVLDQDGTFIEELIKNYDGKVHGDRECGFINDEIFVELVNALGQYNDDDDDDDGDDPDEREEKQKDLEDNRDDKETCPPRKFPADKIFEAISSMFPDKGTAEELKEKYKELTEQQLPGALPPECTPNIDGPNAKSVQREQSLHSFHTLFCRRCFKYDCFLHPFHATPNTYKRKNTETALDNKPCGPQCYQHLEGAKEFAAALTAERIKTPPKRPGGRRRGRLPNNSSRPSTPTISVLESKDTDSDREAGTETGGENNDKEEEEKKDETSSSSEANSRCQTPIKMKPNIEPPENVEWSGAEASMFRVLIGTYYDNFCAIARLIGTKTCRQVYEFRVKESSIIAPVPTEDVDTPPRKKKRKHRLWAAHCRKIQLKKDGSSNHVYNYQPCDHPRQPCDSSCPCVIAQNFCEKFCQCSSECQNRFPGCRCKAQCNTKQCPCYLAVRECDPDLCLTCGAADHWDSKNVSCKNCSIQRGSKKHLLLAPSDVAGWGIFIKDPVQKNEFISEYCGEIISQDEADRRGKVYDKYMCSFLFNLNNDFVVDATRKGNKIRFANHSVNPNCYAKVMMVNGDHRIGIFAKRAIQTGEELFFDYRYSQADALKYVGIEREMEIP
UniProt O09106: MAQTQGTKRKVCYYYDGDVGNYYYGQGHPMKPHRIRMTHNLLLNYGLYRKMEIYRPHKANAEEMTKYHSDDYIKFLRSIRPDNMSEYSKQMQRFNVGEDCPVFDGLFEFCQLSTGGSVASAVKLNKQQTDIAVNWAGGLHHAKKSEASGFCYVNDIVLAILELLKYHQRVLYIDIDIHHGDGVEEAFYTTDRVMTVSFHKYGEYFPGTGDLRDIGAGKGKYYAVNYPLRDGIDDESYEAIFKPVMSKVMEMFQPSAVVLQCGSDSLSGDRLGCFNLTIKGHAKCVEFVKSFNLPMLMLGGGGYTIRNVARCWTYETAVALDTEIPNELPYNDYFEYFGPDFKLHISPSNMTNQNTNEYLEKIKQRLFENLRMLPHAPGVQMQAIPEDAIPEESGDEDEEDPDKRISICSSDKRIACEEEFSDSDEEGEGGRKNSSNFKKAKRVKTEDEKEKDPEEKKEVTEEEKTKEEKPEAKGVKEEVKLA

[2] = biological target: T1, retinoic acid receptor alpha (RARα) (mouse (endogenous in mouse SMCs)); test: co-IP; remark: listed apart in the source

binding [1]: no binding
Molecule: HDAC4 (from UniProt Q6NZM9 1-1076)

binding [2]: binds
B1: HDAC6 (protein, UniProt Q9Z2V5 1-1149)
chain: MTSTGQDSSTRQRKSRHNPQSPLQESSATLKRGGKKCAVPHSSPNLAEVKKKGKMKKLSQPAEEDLVVGLQGLDLNPETRVPVGTGLVFDEQLNDFHCLWDDSFPESPERLHAIREQLILEGLLGRCVSFQARFAEKEELMLVHSLEYIDLMETTQYMNEGELRVLAETYDSVYLHPNSYSCACLATGSVLRLVDALMGAEIRNGMAVIRPPGHHAQHNLMDGYCMFNHLAVAARYAQKKHRIQRVLIVDWDVHHGQGTQFIFDQDPSVLYFSIHRYEHGRFWPHLKASNWSTIGFGQGQGYTINVPWNQTGMRDADYIAAFLHILLPVASEFQPQLVLVAAGFDALHGDPKGEMAATPAGFAHLTHLLMGLAGGKLILSLEGGYNLRALAKGVSASLHTLLGDPCPMLESCVVPCASAQTSIYCTLEALEPFWEVLERSVETQEEDEVEEAVLEEEEEEGGWEATALPMDTWPLLQNRTGLVYDEKMMSHCNLWDNHHPETPQRILRIMCHLEEVGLAARCLILPARPALDSELLTCHSAEYVEHLRTTEKMKTRDLHREGANFDSIYICPSTFACAKLATGAACRLVEAVLSGEVLNGIAVVRPPGHHAEPNAACGFCFFNSVAVAARHAQIIAGRALRILIVDWDVHHGNGTQHIFEDDPSVLYVSLHRYDRGTFFPMGDEGASSQVGRDAGIGFTVNVPWNGPRMGDADYLAAWHRLVLPIAYEFNPELVLISAGFDAAQGDPLGGCQVTPEGYAHLTHLLMGLAGGRIILILEGGYNLASISESMAACTHSLLGDPPPQLTLLRPPQSGALVSISEVIQVHRKYWRSLRLMKMEDKEECSSSRLVIKKLPPTASPVSAKEMTTPKGKVPEESVRKTIAALPGKESTLGQAKSKMAKAVLAQGQSSEQAAKGTTLDLATSKETVGGATTDLWASAAAPENFPNQTTSVEALGETEPTPPASHTNKQTTGASPLQGVTAQQSLQLGVLSTLELSREAEEAHDSEEGLLGEAAGGQDMNSLMLTQGFGDFNTQDVFYAVTPLSWCPHLMAVCPIPAAGLDVSQPCKTCGTVQENWVCLTCYQVYCSRYVNAHMVCHHEASEHPLVLSCVDLSTWCYVCQAYVHHEDLQDVKNAAHQNKFGEDMPHSH

The remaining lines, values behind:

Molecule: EZH2 (from UniProt Q61188 1-746)
binding [1]: binds

Molecule: HDAC1 (from UniProt O09106 1-482)
binding [1]: binds
